Reference: paper PMC12574955, “The Ync13–Rga7–Rng10 complex selectively coordinates secretory vesicle trafficking and secondary septum formation during cytokinesis” (PLOS Biology, 2025)
These are yes or no findings as the source states them, for the method shown. For some of these results: In cells and extracts the contact can be indirect. Some entries that bind do so weakly or less than the wild type. Tags and fused reporters may be left off the sequences shown. One block for each binder: values may come before it.

Columns and labels:
[1] = target: T1, Rga7-mEGFP (Schizosaccharomyces pombe) (UniProt O94466); test: co-IP; S. pombe cell extracts, proteins under native promoters; polyclonal GFP antibody on protein G Dynabeads, 2 h at 4°C; IP buffer 50 mM HEPES pH 7.5, 150 mM NaCl, 1 mM EDTA, 0.1% NP-40; anti-Myc and anti-GFP blots
T1 sequence: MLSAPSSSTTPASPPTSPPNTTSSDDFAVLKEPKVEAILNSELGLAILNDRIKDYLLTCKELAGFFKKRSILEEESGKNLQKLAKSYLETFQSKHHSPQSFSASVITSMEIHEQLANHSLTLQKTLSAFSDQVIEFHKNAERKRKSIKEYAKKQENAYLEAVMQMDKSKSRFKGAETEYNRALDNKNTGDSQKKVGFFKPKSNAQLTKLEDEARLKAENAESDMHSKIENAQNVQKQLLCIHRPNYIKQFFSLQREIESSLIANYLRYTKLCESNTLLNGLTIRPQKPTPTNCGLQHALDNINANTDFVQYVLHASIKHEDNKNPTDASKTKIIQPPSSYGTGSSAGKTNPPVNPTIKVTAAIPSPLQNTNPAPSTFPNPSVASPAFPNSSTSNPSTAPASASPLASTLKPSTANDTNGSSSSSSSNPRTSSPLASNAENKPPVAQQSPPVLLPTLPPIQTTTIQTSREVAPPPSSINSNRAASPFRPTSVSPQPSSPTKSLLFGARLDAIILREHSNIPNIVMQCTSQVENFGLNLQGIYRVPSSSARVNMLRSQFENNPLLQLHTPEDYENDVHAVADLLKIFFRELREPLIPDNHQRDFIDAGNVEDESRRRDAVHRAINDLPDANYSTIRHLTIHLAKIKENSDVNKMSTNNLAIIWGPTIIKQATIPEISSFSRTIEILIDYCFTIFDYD

[2] = target: T1, Rga7-mEGFP (Schizosaccharomyces pombe); test: ectopic mistargeting to mitochondria (Tom20-GBP); protein 1 tagged with mEGFP or mECitrine tethered to mitochondria by Tom20-GBP in live S. pombe cells; recruitment of tdTomato/mCherry/RFP-tagged protein 2 seen by confocal microscopy; Ync13 with Sec1 also tested in rng10Δ cells
[3] = target: T2, Rga7-FBD-mEGFP (Schizosaccharomyces pombe) (UniProt O94466); test: as above
T2 sequence: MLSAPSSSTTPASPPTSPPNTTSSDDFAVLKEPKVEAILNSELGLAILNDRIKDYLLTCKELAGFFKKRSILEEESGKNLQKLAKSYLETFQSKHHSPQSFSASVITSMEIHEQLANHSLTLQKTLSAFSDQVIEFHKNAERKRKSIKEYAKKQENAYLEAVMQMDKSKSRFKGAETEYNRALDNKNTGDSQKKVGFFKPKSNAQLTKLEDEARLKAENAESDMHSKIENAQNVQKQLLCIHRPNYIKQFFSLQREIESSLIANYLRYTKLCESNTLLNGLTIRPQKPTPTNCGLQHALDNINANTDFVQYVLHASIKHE

[4] = target: T3, Rng10-(1-200)-mEGFP (Schizosaccharomyces pombe) (UniProt Q9P6L9); test: as above
T3 sequence: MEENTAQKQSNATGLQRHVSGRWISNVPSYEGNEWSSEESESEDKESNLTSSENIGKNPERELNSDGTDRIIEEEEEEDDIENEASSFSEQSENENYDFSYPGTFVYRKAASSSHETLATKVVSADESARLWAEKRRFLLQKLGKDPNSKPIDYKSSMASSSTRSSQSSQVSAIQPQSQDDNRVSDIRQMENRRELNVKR

binding [1]: binds
B1: Smi1-13Myc (protein, UniProt O14362 1-504)
chain: MSKNSFSSMANSVTSFFQSLTTPNRHADPSFRPSRREKQSRLPTPLQSVAASAYSGVNASQTGLLNDSRANSVTNLPNSSNTSQVGLNNISPAPVGYVPGSKTNELANNSMEMQEISPNGSASLPPPVSESWRRIDRWAEENYYELYCQLCYGATVADVDSLEYELECTLPRDVRESLYIHDGQDRGGQPTGILFGVTLLDIEEIEEESELWRRVAQSYAEATLAGKIDQAVASRQASFPPGAVQCVYAHPGWIPLAKDFVGNNIAIDLAPGPAGQWGQVILFGRDQDTKYVVARSWADFLAIVAYDMENGKWLVDEDDNSLRLIYGPPREQWSYLDILKYRARKAERRKFKKRDGKRTTRPIPKSIAKEDVTNSANSTAPSTGTTVLDDGLDNNYEDIPLYGPSKDEELIKKEELEADTDLGLINTSEINQPANLPDEPTAETSNPVSATTVEAVTTTADNKDEEKNDHVTEDVSQNSTIAEASSLQAQEEEKEIETTSVKQE

binding [2]: binds
binding [3]: binds
binding [4]: no binding
B2: Ync13-tdTomato (protein, UniProt O13683 1-1237)
chain: MNCRRKPLPLHSNEVQAAESISKDELYSWTLKNVLILFLVQYRASTPSALQTSSFSTPVEKKTNGAFSGSLFSAKEKKDNPKYPKDFIKYLSLALESISMGKEPEYQDQLIRGCFAAFYNNINKSHISKQLKDSRKIEDMFLIFASSVSSELTKRLGTAYDSNLADRITASFIELCKRVTLKGQLASPSSEFVSHLDMYHSKLLNKSEILSTKRVNRGQDQFDLSSFPLLKVFSSVFKVAYSKALLDAEKLFPSIDEAAIAEDIGILIEDLESDACKFSHSVVDFSNYKSYSTWKARELQTLEQHRKIMLSLIPLSSSPNHPIQPIGFPASRKTPTYVPPIARPYFRQLLSLCLEYRLQVTDPVEVKQINTFIRECSIYWRILPSTRCALSMDFAREHLQKGLITSADVLTHFGELHKSLKEWEITYWPKIDVSIFSSALFGIRNALAQLLKKSLLDLLHEKKADFHRWLNIMSICVEDGKVINQDLSPKSEISSVALALQEHCKVIFDEEFDLSKLPSSNFLDEIILASNRISVRIKFLERNCSECIYGVLSLPQIFINIVLPNYIRAALVVAKEYLREKANADINDLTKDMLEIYSDLKQMIHVLQEYHNEEYRIGSFEGFFQPFIDSWLDNVEASAEQWFLRSLEKDNFDENSSEGQYSSSIVDLFHAFHQAFRTLEGFEWEDDLANARFFTRFFRVIYIVLSKYTQWTTQKFFEEANKQDDTSEVQNDNSSSWFSKARNILSGSNEVLPFRFSPTMCILLNNIHFAMHAYEELEQKIDLQRLIEALDVAESTKRHKISATNYLYTIKVVRGEGLHPDGAGKIRTSYIVLTDNKGRRIGKTRPIHSMNPRWDDTFEVKTKDALMITANLWSKGKFNDHEIFGRSSFTLSPKIYGDYLPREEWFDLNPHGELLLRIEMEGEREHIGFYVGRTYHDLERAQREMIKFIVNKMEPVINQNLSTATLKKLLSANTWMDLDKTMTSVTSLLNRTGFSSKSSENVKKEGELTDVQIEAAIYELLDYFDLNFSIIAKHLTKDVFVTVMSYVWDEVVCTTEELLLPPVSVKPINRKPLSPAQMAIVYRWLQFLKDYFYANGEGVKLPVLETDHYKELLRVQEYYDKPTDFLLQECDKIASQLYLSSRMVNNEPVESLPRHSRIKFANKEIYRSGTIRKVHIQTNESELERNERIILRILRMRADSKRFLSKHFQRKGRLLMADAMRNGYVMPLGHLKKLDSR
